Reference: the supplement of paper PMC12889115
The list shows a part of the results. These are raw signals, not scaled to a control.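 First-pass screen: polymyxin B was added at a level that permeabilizes the Salmonella outer membrane while sparing the inner membrane. DMSO wells, with and without polymyxin B, defined maximum growth. Because plates differed from one another, each plate's data were ranked separately and the compounds with the lowest OD600 were carried forward as hits.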

System: Salmonella enterica serovar Typhimurium SL1344
Experiment: bacterial growth OD600 after 18 h with compound and polymyxin B; higher = more bacterial growth (less inhibition)
Settings: 50 µM, Mueller-Hinton broth

Row | Structure (SMILES) | bacterial growth OD600 (polymyxin B 0.75 µg/mL) | bacterial growth OD600 (polymyxin B 1 µg/mL)
1 | Cc1ccn(CC(=O)NCc2cccnc2Oc2cccc(C(F)(F)F)c2)n1 | 0.76 | –
2 | Cc1ccc2nc(N3CCC(C(=O)NCCC(C)C)CC3)nc(C)c2c1 | 0.825 | –
3 | O=C1O[C@@H]2CN(Cc3ccccn3)C[C@@H]2N1CCCc1ccc(F)cc1 | 0.875 | –
4 | CO[C@H]1[C@H](NC(=O)c2ccncc2)c2ccccc2C12CCN(C(=O)c1ccc(CC(C)C)cc1)CC2 | 0.002 | –
5 | O=C(NCCc1ccccn1)c1coc(COc2ccc(F)cc2)n1 | – | 0.991
6 | O=C(c1ccc(OC2CCN(Cc3ccccn3)CC2)cc1)N1CCCCC1CCO (stereo unspecified) | – | 1.04
7 | CCOC(=O)C1(Cc2cccc(OC)c2)CCN(Cc2csc(C(C)=O)c2)CC1 | – | 0.752
8 | COc1cccc(-c2cnnc(N(C)Cc3nccn3C)n2)c1 | 0.75 | –
9 | CC(=O)N1CCN(c2ccc(-c3nc(Cc4ccc(F)cc4)no3)cn2)CC1 | 0.239 | –
10 | Cn1nc(C(=O)N2CCCC(CCC(=O)NCc3ccc(F)c(F)c3)C2)ccc1=O (stereo unspecified) | – | 1.24
11 | COc1ccc(-c2nc(CN(C)Cc3ccc(C(F)(F)F)cc3)c(C)o2)c(OC)c1 | 0.434 | –
12 | CCCNC(=O)NC1CC(=O)N(CCc2ccccc2)C1 (stereo unspecified) | – | 0.942
13 | O=C(CCC1CCN(CC2CCOC2)CC1)Nc1ccc2c(c1)OCCO2 (stereo unspecified) | – | 1.01
14 | O=C(NC1CCC1)C1CCC(=O)N(CCCN2CCOCC2)C1 (stereo unspecified) | – | 0.865
15 | O=C(C1CCCC1)N1CCC2(CCCN(Cc3ccccc3F)C2=O)C1 (stereo unspecified) | – | 1.02
16 | COCCn1c(CN2CCCCO2)cnc1S(=O)(=O)C1CCCCCC1 | – | 0.707
17 | CC1(C)C[C@@H]2C[C@@](C)(CN2C(=O)c2cn(Cc3ccc(F)cc3Cl)nn2)C1 | – | 0.008
18 | CCOC(=O)N1CCN(C(=O)c2cc(Cn3nc(C)cc3C)[nH]n2)CC1 | 0.831 | –
19 | O=C1CCCN1CC(=O)N1CCc2[nH]nc(-c3ccccc3F)c2C1 | 0.814 | –
20 | CN(Cc1nc(Cc2ccccc2F)no1)CC1Cc2ccccc2O1 (stereo unspecified) | – | 0.881
21 | CN(CCc1ccccc1)C(=O)c1nc2sccn2c1CN1CCSCC1 | – | 0.75

Full records as entered above. Order of values: bacterial growth OD600 (polymyxin B 0.75 µg/mL) | bacterial growth OD600 (polymyxin B 1 µg/mL)
COCCn1c(CN2CCCCO2)cnc1S(=O)(=O)C1CCCCCC1 as listed: – | 0.707
CCOC(=O)C1(Cc2cccc(OC)c2)CCN(Cc2csc(C(C)=O)c2)CC1 as listed: – | 0.752
